{"source": "patent US20080113899A1", "about": "“Iron Supplement and Utilization of the Same” (GEKKEIKAN SAKE CO., LTD., priority 2004, published 2008)", "key": {"[1]": {"experiment": "Sensory tests on iron-fortified sake", "details": "25 panelists; for Sensory evaluation (taste pleasant): sake"}, "[2]": {"experiment": "Sensory tests on iron-fortified cookies", "details": "25 panelists; for Sensory evaluation (taste pleasant): cookies"}}, "note": "Non-standard residues stand in square brackets, D forms with d. Residues, ends and D or L forms follow the SMILES beside them. ξ: configuration not given here. ξOrn(N(OH)Ac) = CC(=O)N(O)CCCC(N)C(=O)O"}
{"compound": "CC(=O)N([O-])CCCC1NC(=O)CNC(=O)C(CO)NC(=O)C(CO)NC(=O)C(CCCN([O-])C(C)=O)NC(=O)C(CCCN([O-])C(C)=O)NC1=O.[Fe+3]", "note": "(centres unmarked) [Ferrichrysin, ferrichrysin] (cyclo(G[ξOrn(N(OH)Ac)][ξOrn(N(OH)Ac)][ξOrn(N(OH)Ac)]SS); configuration not given here)", "values": [{"measurement": "Amount added to sake giving good sensory evaluations", "setting": "[1]", "value": "≤ 1", "unit": "mg/mL"}, {"measurement": "Sensory evaluation (taste pleasant)", "setting": "[1]; ferrichrysin 0.01 mg/ml", "value": "+++ (20 or more panelists found the taste pleasant)"}, {"measurement": "Sensory evaluation (taste pleasant)", "setting": "[1]; ferrichrysin 0.05 mg/ml", "value": "+++ (20 or more panelists found the taste pleasant)"}, {"measurement": "Sensory evaluation (taste pleasant)", "setting": "[1]; ferrichrysin 0.1 mg/ml", "value": "+++ (20 or more panelists found the taste pleasant)"}, {"measurement": "Sensory evaluation (taste pleasant)", "setting": "[1]; ferrichrysin 0.2 mg/ml", "value": "+++ (20 or more panelists found the taste pleasant)"}, {"measurement": "Sensory evaluation (taste pleasant)", "setting": "[1]; ferrichrysin 0.5 mg/ml", "value": "++ (7 to 19 panelists found the taste pleasant)"}, {"measurement": "Sensory evaluation (taste pleasant)", "setting": "[1]; ferrichrysin 1 mg/ml", "value": "+ (1 to 6 panelists found the taste pleasant)"}, {"measurement": "Sensory evaluation (taste pleasant)", "setting": "[1]; ferrichrysin 2 mg/ml", "value": "− (no panelists found the taste pleasant)"}, {"measurement": "Sensory evaluation (taste pleasant)", "setting": "[1]; ferrichrysin 5 mg/ml", "value": "− (no panelists found the taste pleasant)"}, {"measurement": "Sensory evaluation (taste pleasant)", "setting": "[1]; ferrichrysin 10 mg/ml", "value": "− (no panelists found the taste pleasant)"}, {"measurement": "Amount added to cookies giving good sensory evaluations", "setting": "[2]", "value": "≤ 3", "unit": "mg/g"}, {"measurement": "Sensory evaluation (taste pleasant)", "setting": "[2]; ferrichrysin 0.05 mg/g", "value": "+++ (20 or more panelists found the taste pleasant)"}, {"measurement": "Sensory evaluation (taste pleasant)", "setting": "[2]; ferrichrysin 0.1 mg/g", "value": "+++ (20 or more panelists found the taste pleasant)"}, {"measurement": "Sensory evaluation (taste pleasant)", "setting": "[2]; ferrichrysin 0.2 mg/g", "value": "+++ (20 or more panelists found the taste pleasant)"}, {"measurement": "Sensory evaluation (taste pleasant)", "setting": "[2]; ferrichrysin 0.5 mg/g", "value": "+++ (20 or more panelists found the taste pleasant)"}, {"measurement": "Sensory evaluation (taste pleasant)", "setting": "[2]; ferrichrysin 1.5 mg/g", "value": "++ (7 to 19 panelists found the taste pleasant)"}, {"measurement": "Sensory evaluation (taste pleasant)", "setting": "[2]; ferrichrysin 3.0 mg/g", "value": "+ (1 to 6 panelists found the taste pleasant)"}, {"measurement": "Sensory evaluation (taste pleasant)", "setting": "[2]; ferrichrysin 5.0 mg/g", "value": "− (no panelists found the taste pleasant)"}, {"measurement": "Sensory evaluation (taste pleasant)", "setting": "[2]; ferrichrysin 10 mg/g", "value": "− (no panelists found the taste pleasant)"}, {"measurement": "Sensory evaluation (taste pleasant)", "setting": "[2]; ferrichrysin 20 mg/g", "value": "− (no panelists found the taste pleasant)"}]}
